{"source": "PubChem BioAssay AID504804 (Drosophila RNAi Screening Center, 2011)", "purpose": "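Fly genes whose loss lessens doxorubicin-driven cell death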 (primary screen)", "cell system": "Drosophila Kc cells", "knock-down reagent": "long dsRNA against Drosophila genes, 0.5 µg dsRNA per well", "duration": "96 h (48 h knock-down, then 48 h drug)", "conditions": "doxorubicin 5 µg/ml for 48 h, added 48 h after dsRNA", "measured": "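Luminescent ATP counts per replicate, not normalised, reflecting viable cells after 48 h dsRNA knock-down followed by 48 h of 5 µg/ml doxorubicin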", "reading the numbers": "raw ATP luminescence: higher = more viable cells, protection from doxorubicin", "hit rule": "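z-score of 2 or more over plate mean in both duplicates, retained only when retests and separate dsRNAs confirm the protection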", "note": "The deposit covers about 19,000 reagents; this is an unselected part of those that have a named target and a result. In the full data, 47 (0.25%) were called active. 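Signals are raw, not normalised; exact z-scores behind calls not deposited; actives needed confirmation, so some wells reaching 2 SD are inactive.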 Names joined by + are all predicted targets of the reagent."}
{"predicted target": "X11Lbeta", "DRSC id": "DRSC18156", "raw ATP luminescence, replicate 1": 3.15e5, "raw ATP luminescence, replicate 2": 3.48e5, "Call": "inactive"}
{"predicted target": "X11Lbeta", "DRSC id": "DRSC18158", "raw ATP luminescence, replicate 1": 3.91e5, "raw ATP luminescence, replicate 2": 3.60e5, "Call": "inactive"}
{"predicted target": "mRpS17 (mitochondrial ribosomal protein S17)", "DRSC id": "DRSC04463", "raw ATP luminescence, replicate 1": 35150, "raw ATP luminescence, replicate 2": 51863, "Call": "inactive"}
{"predicted target": "Spn42Dc (Serpin 42Dc)", "DRSC id": "DRSC05010", "raw ATP luminescence, replicate 1": 23880, "raw ATP luminescence, replicate 2": 1.10e5, "Call": "inactive"}
{"predicted target": "Coq4 + frc", "DRSC id": "DRSC10381", "raw ATP luminescence, replicate 1": 38090, "raw ATP luminescence, replicate 2": 41160, "Call": "inactive"}
{"predicted target": "Coq4 + frc", "DRSC id": "DRSC10382", "raw ATP luminescence, replicate 1": 1.03e5, "raw ATP luminescence, replicate 2": 60930, "Call": "inactive"}
{"predicted target": "CG10254", "DRSC id": "DRSC14153", "raw ATP luminescence, replicate 1": 30163, "raw ATP luminescence, replicate 2": 45250, "Call": "inactive"}

In a second layout: results already given
predicted target,DRSC id,"raw ATP luminescence, replicate 1","raw ATP luminescence, replicate 2",Call
mRpS17 (mitochondrial ribosomal protein S17),DRSC04463,35150,51863,inactive
Spn42Dc (Serpin 42Dc),DRSC05010,23880,1.10e5,inactive

Further results follow.
{"predicted target": "CG10171", "DRSC id": "DRSC09711", "raw ATP luminescence, replicate 1": 34040, "raw ATP luminescence, replicate 2": 42667, "Call": "inactive"}
{"predicted target": "Rab9", "DRSC id": "DRSC03281", "raw ATP luminescence, replicate 1": 44883, "raw ATP luminescence, replicate 2": 47660, "Call": "inactive"}
{"predicted target": "alphaTub85E (alpha-Tubulin at 85E)", "DRSC id": "DRSC16899", "raw ATP luminescence, replicate 1": 64203, "raw ATP luminescence, replicate 2": 50373, "Call": "inactive"}
{"predicted target": "GluRIA (Glutamate receptor IA)", "DRSC id": "DRSC11176", "raw ATP luminescence, replicate 1": 66517, "raw ATP luminescence, replicate 2": 65893, "Call": "inactive"}
{"predicted target": "Cpr67Fa1 (Cuticular protein 67Fa1)", "DRSC id": "DRSC10932", "raw ATP luminescence, replicate 1": 68787, "raw ATP luminescence, replicate 2": 75313, "Call": "inactive"}
{"predicted target": "IM33 (Immune induced molecule 33)", "DRSC id": "DRSC00476", "raw ATP luminescence, replicate 1": 26023, "raw ATP luminescence, replicate 2": 32867, "Call": "inactive"}
{"predicted target": "Cyp6d4 (Cytochrome P450 6d4)", "DRSC id": "DRSC16633", "raw ATP luminescence, replicate 1": 30803, "raw ATP luminescence, replicate 2": 39630, "Call": "inactive"}
{"predicted target": "CG15631", "DRSC id": "DRSC00466", "raw ATP luminescence, replicate 1": 27637, "raw ATP luminescence, replicate 2": 37387, "Call": "inactive"}
{"predicted target": "MED10 (Mediator complex subunit 10)", "DRSC id": "DRSC10474", "raw ATP luminescence, replicate 1": 37857, "raw ATP luminescence, replicate 2": 40687, "Call": "inactive"}
{"predicted target": "Cpr78Cc (Cuticular protein 78Cc)", "DRSC id": "DRSC11846", "raw ATP luminescence, replicate 1": 53797, "raw ATP luminescence, replicate 2": 56570, "Call": "inactive"}
{"predicted target": "CG12541", "DRSC id": "DRSC17483", "raw ATP luminescence, replicate 1": 1.82e5, "raw ATP luminescence, replicate 2": 2.29e5, "Call": "inactive"}
{"predicted target": "CG12541", "DRSC id": "DRSC17839", "raw ATP luminescence, replicate 1": 42030, "raw ATP luminescence, replicate 2": 46770, "Call": "inactive"}
